# The list shows a part of the results. Most entries show no effect beyond the scatter of the controls.
# Protein sequences, listed by entry. Tags and fused reporters are not part of them. Lines headed by an entry give the natural chain unless they say otherwise; changes in a name come on top.
# UniProt Q01664: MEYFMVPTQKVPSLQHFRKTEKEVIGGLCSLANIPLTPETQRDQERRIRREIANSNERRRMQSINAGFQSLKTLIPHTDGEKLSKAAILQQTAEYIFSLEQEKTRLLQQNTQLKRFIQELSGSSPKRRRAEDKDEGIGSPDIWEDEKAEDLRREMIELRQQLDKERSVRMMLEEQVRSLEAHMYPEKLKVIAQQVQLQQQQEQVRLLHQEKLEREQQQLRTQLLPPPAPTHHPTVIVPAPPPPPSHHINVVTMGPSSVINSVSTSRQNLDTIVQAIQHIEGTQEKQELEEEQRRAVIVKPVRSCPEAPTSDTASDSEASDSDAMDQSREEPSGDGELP
# UniProt Q00796: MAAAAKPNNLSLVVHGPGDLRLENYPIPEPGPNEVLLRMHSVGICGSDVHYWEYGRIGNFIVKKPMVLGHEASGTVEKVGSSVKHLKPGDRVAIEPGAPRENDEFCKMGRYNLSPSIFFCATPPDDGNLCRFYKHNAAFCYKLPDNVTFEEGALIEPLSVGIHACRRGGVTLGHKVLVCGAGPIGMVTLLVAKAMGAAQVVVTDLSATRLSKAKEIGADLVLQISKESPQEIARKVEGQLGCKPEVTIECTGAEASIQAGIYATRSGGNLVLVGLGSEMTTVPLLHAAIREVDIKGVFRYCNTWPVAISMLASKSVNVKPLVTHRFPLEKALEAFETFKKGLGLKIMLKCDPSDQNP
# UniProt Q08752, whole entry: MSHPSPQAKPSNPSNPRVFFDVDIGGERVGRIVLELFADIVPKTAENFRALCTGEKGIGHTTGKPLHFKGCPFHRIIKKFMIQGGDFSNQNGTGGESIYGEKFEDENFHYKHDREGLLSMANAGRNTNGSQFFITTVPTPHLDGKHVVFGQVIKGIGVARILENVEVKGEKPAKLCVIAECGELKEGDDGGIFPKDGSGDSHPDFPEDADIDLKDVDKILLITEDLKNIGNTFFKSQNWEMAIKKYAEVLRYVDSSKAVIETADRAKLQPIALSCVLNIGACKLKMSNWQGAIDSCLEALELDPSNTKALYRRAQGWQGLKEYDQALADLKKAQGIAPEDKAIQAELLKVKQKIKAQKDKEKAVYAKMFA
# UniProt Q08257: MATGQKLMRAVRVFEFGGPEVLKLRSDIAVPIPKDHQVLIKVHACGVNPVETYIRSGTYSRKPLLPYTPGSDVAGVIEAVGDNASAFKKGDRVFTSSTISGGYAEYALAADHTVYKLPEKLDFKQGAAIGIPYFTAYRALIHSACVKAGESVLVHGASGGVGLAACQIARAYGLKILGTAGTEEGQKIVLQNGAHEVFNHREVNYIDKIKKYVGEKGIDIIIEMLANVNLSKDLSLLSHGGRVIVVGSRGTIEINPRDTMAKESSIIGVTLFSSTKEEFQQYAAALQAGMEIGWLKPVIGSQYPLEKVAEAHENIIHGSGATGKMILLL
# UniProt Q03701: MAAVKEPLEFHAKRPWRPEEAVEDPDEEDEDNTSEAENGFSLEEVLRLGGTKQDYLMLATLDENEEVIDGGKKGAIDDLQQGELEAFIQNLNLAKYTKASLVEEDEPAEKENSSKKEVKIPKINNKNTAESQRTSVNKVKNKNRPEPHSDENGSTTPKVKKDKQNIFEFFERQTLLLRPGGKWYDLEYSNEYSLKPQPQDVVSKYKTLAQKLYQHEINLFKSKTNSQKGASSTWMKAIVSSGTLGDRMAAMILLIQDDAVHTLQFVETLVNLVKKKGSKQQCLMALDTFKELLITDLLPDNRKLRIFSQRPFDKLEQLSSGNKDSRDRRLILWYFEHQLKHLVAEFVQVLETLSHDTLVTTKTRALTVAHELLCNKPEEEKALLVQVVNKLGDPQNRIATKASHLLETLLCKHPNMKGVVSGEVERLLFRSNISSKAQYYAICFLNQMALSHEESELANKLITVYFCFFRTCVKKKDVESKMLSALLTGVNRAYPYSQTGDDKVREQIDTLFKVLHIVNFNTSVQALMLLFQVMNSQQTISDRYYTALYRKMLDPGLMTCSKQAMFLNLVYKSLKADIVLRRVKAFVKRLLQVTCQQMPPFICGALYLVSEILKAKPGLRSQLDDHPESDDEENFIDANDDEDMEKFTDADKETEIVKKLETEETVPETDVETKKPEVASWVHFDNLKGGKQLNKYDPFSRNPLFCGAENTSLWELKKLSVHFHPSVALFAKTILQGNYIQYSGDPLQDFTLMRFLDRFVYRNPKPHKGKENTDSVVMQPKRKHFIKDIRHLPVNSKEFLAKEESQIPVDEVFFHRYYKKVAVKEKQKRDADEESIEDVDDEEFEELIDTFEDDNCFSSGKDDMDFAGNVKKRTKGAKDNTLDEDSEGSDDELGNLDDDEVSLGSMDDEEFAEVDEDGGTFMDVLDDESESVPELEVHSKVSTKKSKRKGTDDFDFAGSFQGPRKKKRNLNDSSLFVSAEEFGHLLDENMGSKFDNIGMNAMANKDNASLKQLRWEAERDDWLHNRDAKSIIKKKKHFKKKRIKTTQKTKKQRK
# UniProt Q07812, whole entry: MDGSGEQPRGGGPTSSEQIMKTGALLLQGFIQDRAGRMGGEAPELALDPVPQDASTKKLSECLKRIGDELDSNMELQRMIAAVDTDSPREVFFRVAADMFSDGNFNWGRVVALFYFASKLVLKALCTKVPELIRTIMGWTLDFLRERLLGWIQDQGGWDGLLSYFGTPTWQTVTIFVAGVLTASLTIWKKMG
# UniProt Q06830: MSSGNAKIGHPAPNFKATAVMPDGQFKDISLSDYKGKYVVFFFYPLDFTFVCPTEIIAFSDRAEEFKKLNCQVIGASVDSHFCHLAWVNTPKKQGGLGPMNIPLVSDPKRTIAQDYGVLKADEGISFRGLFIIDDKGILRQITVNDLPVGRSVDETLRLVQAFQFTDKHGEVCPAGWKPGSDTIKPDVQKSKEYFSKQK
# UniProt Q0VAQ4: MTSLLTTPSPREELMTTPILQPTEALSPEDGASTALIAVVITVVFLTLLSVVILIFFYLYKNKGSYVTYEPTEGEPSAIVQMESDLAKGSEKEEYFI
# UniProt Q10567: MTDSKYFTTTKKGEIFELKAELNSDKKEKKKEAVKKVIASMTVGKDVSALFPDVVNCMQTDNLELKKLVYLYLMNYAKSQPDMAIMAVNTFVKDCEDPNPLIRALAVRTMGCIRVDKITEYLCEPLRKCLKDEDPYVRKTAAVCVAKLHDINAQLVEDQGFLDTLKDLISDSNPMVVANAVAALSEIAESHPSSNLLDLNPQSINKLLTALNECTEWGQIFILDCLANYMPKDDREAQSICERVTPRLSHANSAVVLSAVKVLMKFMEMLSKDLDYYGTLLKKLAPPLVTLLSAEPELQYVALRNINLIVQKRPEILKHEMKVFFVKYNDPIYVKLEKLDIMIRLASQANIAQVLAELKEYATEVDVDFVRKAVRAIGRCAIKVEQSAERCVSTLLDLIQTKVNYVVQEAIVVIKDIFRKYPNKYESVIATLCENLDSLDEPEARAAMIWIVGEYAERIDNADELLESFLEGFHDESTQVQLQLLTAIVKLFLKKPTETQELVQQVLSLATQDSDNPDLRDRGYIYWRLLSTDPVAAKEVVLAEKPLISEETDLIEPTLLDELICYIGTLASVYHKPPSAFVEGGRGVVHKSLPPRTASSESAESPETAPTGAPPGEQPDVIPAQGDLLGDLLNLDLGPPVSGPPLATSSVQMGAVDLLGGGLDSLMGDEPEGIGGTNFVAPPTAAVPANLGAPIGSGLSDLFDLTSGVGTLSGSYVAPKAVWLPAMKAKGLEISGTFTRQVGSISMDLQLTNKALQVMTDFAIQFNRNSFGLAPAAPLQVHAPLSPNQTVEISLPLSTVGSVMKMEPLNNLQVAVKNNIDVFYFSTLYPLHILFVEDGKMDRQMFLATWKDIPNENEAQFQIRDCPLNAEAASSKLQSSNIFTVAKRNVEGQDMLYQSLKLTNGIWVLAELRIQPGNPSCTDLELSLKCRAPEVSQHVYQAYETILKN
# UniProt P85037: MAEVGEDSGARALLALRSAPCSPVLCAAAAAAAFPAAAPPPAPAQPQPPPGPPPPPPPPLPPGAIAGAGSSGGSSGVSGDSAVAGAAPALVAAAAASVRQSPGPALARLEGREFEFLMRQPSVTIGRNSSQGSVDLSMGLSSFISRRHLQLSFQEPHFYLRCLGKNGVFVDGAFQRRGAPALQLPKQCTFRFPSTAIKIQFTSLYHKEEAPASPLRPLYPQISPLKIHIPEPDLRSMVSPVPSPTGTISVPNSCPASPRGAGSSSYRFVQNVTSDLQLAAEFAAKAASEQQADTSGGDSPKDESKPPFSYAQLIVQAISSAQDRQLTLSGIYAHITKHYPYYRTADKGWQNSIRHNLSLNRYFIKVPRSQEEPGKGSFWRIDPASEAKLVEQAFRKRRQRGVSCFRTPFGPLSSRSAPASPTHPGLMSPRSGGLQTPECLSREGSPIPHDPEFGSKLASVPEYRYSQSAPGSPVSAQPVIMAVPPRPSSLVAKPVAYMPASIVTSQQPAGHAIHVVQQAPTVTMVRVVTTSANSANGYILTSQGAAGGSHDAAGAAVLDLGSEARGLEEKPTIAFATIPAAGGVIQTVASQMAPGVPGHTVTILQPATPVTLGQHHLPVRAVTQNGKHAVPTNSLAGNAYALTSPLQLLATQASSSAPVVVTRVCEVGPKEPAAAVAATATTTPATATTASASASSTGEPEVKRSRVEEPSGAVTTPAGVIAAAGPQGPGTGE
# UniProt Q00610: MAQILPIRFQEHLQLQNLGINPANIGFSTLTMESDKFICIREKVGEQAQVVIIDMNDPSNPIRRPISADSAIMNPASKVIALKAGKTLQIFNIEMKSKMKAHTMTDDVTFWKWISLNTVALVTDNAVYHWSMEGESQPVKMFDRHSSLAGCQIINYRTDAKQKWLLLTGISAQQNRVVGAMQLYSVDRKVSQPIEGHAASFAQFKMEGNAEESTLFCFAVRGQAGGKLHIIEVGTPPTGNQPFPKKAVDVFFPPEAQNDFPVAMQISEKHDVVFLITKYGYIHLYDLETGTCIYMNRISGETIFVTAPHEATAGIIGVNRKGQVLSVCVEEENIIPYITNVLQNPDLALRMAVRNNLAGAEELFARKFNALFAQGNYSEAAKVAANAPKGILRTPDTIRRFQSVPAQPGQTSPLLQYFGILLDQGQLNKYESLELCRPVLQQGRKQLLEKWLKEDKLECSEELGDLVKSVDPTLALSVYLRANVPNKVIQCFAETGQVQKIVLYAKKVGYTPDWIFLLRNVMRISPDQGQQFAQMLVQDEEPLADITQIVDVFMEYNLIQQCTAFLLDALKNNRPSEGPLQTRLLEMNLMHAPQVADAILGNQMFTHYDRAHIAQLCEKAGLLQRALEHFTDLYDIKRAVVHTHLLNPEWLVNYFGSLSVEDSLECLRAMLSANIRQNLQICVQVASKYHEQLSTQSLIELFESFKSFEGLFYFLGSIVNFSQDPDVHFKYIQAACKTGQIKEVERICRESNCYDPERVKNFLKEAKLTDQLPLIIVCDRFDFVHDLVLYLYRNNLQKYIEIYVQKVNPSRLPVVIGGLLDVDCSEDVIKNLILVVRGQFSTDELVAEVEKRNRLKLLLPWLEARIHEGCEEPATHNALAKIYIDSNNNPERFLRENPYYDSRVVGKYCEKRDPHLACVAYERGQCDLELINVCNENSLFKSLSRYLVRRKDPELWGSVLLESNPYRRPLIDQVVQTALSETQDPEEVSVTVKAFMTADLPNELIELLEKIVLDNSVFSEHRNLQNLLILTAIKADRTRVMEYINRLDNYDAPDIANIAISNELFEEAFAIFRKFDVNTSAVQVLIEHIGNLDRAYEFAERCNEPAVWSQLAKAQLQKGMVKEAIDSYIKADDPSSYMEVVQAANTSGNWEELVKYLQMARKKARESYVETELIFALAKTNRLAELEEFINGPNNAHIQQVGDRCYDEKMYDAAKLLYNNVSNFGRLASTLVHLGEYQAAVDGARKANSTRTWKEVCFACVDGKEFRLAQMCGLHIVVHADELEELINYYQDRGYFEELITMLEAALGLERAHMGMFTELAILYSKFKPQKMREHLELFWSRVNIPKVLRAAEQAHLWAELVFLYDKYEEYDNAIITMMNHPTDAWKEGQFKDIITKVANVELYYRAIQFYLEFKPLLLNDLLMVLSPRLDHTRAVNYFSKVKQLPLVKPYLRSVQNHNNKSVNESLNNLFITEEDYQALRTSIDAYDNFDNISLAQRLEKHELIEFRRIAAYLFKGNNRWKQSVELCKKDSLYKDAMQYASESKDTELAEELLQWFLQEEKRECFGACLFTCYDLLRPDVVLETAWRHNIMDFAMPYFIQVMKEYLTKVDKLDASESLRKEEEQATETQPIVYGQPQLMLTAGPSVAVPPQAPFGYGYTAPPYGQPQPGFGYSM
# UniProt Q00535, whole entry, looked up: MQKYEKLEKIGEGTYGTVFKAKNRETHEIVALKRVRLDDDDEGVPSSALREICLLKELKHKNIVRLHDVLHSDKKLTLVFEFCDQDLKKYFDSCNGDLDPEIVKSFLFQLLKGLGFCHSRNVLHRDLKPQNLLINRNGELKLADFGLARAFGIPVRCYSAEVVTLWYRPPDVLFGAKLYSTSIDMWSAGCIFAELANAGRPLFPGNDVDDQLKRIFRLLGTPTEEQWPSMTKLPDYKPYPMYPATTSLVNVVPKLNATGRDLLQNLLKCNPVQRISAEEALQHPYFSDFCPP
# Compound: Cc1nc(Nc2ncc(C(=O)Nc3c(C)cccc3Cl)s2)cc(N2CCN(CCO)CC2)n1 [dasatinib]
# Assay: log2 fold change of tryptic peptide abundance, ligand vs vehicle (limited proteolysis) (log2 ratio); higher = more trypsin-susceptible (destabilized)
# Details: ligand concentration: 5 uM; sample: K562 cleared lysate
row,Target,log2 fold change
1,"ABHD18 (peptide sequence: YLEGGHISAYLFK, peptide start residue: 397) (UniProt Q0P651)",0.478
2,"TFAP4 (peptide sequence: AVIVKPVR, peptide start residue: 295) (UniProt Q01664)",-0.374
3,"SORD (peptide sequence: VAIEPGAPR, peptide start residue: 92) (UniProt Q00796)",0.328
4,"FKBP3 (peptide sequence: ETKSEETLDEGPPKYTK, peptide start residue: 97) (UniProt Q00688)",-0.625
5,"PTPN12 (peptide sequence: PVLHMVSSEQHSADLNR, peptide start residue: 391) (UniProt Q05209)",0.653
6,"EXOSC9 (peptide sequence: MEKAPIDTSDVEEK, peptide start residue: 298) (UniProt Q06265)",0.192
7,"ARHGAP1 (peptide sequence: LEQLGIPR, peptide start residue: 201) (UniProt Q07960)",-0.164
8,"PPID (peptide sequence: YVDSSKAVIETADR, peptide start residue: 252) (UniProt Q08752)",0.289
9,"AKR1C1 (peptide sequence: YKPVCNQVECHPYFNQR, peptide start residue: 184) (UniProt Q04828)",0.128
10,"PPP1R8 (peptide sequence: RVEGPGSLGLEESGSRR, peptide start residue: 237) (UniProt Q12972)",0.152
11,"CRYZ (peptide sequence: EVNYIDKIK, peptide start residue: 202) (UniProt Q08257)",-0.848
12,"BPTF (peptide sequence: LPGNTNVNYR, peptide start residue: 1049) (UniProt Q12830)",-0.374
13,"SPIRE1 (peptide sequence: LCAAHLPTESDAPNHYQAVCR, peptide start residue: 202) (UniProt Q08AE8)",-0.272
14,"KIF23 (peptide sequence: GMYWTEGR, peptide start residue: 767) (UniProt Q02241)",0.438
15,"CEBPZ (peptide sequence: RKGTDDFDFAGSFQGPR, peptide start residue: 948) (UniProt Q03701)",-0.234
16,"ARHGAP5 (peptide sequence: TIEAGIGKNPR, peptide start residue: 1061) (UniProt Q13017)",-0.163
17,"UniProt Q05397 (peptide sequence: LLNSDLGELINK, peptide start residue: 989)",-0.38
18,"BAX (peptide sequence: GGGPTSSEQIMK, peptide start residue: 10) (UniProt Q07812)",-0.102

row,Target,log2 fold change
1,"PRDX1 (peptide sequence: DISLSDYKGK, peptide start residue: 28) (UniProt Q06830)",0.484
2,"SMAGP (peptide sequence: GSEKEEYFI, peptide start residue: 89) (UniProt Q0VAQ4)",0.336
3,"UniProt Q12980 (peptide sequence: GRHHLEEIMYNENTR, peptide start residue: 522)",-0.63
4,"AP1B1 (peptide sequence: NINLIVQK, peptide start residue: 305) (UniProt Q10567)",-0.186
5,"DST (peptide sequence: GFHSGEDSGLITTAAAR, peptide start residue: 7461) (UniProt Q03001)",0.159
6,"LAMTOR4 (peptide sequence: LSVVFGEHTLLVTVSGQR, peptide start residue: 66) (UniProt Q0VGL1)",-0.202
7,"UniProt Q09028 (peptide sequence: EAAFDDAVEER, peptide start residue: 5)",0.0466
8,"PLOD1 (peptide sequence: HTLGHLLSLDSYR, peptide start residue: 500) (UniProt Q02809)",-0.638
9,"FOXK1 (peptide sequence: IHIPEPDLR, peptide start residue: 227) (UniProt P85037)",-0.084
10,"AMPD2 (peptide sequence: HFPLDLR, peptide start residue: 110) (UniProt Q01433)",-0.149
11,"UniProt Q00341 (peptide sequence: ASVITQVFHVPLEER, peptide start residue: 73)",-0.0818
12,"CLTC (peptide sequence: NNRPSEGPLQTR, peptide start residue: 572) (UniProt Q00610)",-0.326
13,"RBL2 (peptide sequence: NILQQHFDK, peptide start residue: 385) (UniProt Q08999)",-0.595
14,"RASSF7 (peptide sequence: NAEELGHEAFWEQELR, peptide start residue: 165) (UniProt Q02833)",0.611
15,"UniProt P83916 (peptide sequence: ADSDSEDKGEESKPK, peptide start residue: 87)",0.358
16,"UniProt P84022 (peptide sequence: KGEQNGQEEKWCEK, peptide start residue: 20)",0.22
17,"RPL18 (peptide sequence: HFGKAPGTPHSHTKPYVR, peptide start residue: 151) (UniProt Q07020)",-0.13
18,"CDK5 (peptide sequence: KYFDSCNGDLDPEIVK, peptide start residue: 89) (UniProt Q00535)",0.462

# Quoted from the listing.
# Under log2 fold change, UniProt Q00341 (peptide sequence: ASVITQVFHVPLEER, peptide start residue: 73) is entered as -0.0818
# Under log2 fold change, UniProt P83916 (peptide sequence: ADSDSEDKGEESKPK, peptide start residue: 87) is entered as 0.358
